# This is one part of the list.
# B1: DCIR1 (Mus musculus), Q9QZ15 (protein)
# chain: MASEITYAEVKFKNESNSLHTYSESPAAPREKPIRDLRKPGSPSLLLTSLMLLLLLLAITFLVAFIIYFQKYSQLLEEKKAAKNIMHNELNCTKSVSPMEDKVWSCCPKDWRLFGSHCYLVPTVSSSASWNKSEENCSRMGAHLVVIQSQEEQDFITGILDTHAAYFIGLWDTGHRQWQWVDQTPYEESITFWHNGEPSSGNEKCATIIYRWKTGWGWNDISCSLKQKSVCQMKKINL
# Legend:
# Experiment in all cases: glycan array binding signal (z-score within array); higher = stronger binding
# Conditions in all cases: glycan notation: IUPAC condensed, linker removed
# Fuc(a1-2)Gal = biological target: Fuc(a1-2)Gal
# Procedure, shortened: (§1)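 Negative Z-scores can be read as non-binding. The Z-score is calculated within each array and then averaged across arrays of one protein sequence at different concentrations or buffers and across linkers. Arrays, 3228 in all, were curated from the Consortium for Functional Glycomics database and kept only where the protein sequence was available.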
# Fuc(a1-2)Gal(b1-3)GalNAc = biological target: Fuc(a1-2)Gal(b1-3)GalNAc
# Procedure, shortened: as §1
# [1] = biological target: Fuc(a1-2)Gal(b1-3)GalNAc(a1-3)[Fuc(a1-2)]Gal(b1-4)Glc
# Procedure, shortened: as §1
# [2] = biological target: Fuc(a1-2)Gal(b1-3)GalNAc(a1-3)[Fuc(a1-2)]Gal(b1-4)GlcNAc
# Procedure, shortened: as §1
# [3] = biological target: Fuc(a1-2)Gal(b1-3)GalNAc(b1-3)Gal
# Procedure, shortened: as §1
# [4] = biological target: Fuc(a1-2)Gal(b1-3)GalNAc(b1-3)Gal(a1-4)Gal(b1-4)Glc
# Procedure, shortened: as §1
# [5] = biological target: Fuc(a1-2)Gal(b1-3)GalNAc(b1-4)[Neu5Ac(a2-3)]Gal(b1-4)Glc
# Procedure, shortened: as §1
# Fuc(a1-2)Gal(b1-3)GlcNAc = biological target: Fuc(a1-2)Gal(b1-3)GlcNAc
# Procedure, shortened: as §1
# [6] = biological target: Fuc(a1-2)Gal(b1-3)GlcNAc(b1-2)Man(a1-3)[Fuc(a1-2)Gal(b1-3)GlcNAc(b1-2)Man(a1-6)]Man(b1-4)GlcNAc(b1-4)GlcNAc
# Procedure, shortened: as §1
# [7] = biological target: Fuc(a1-2)Gal(b1-3)GlcNAc(b1-2)Man(a1-3)[Fuc(a1-2)Gal(b1-3)GlcNAc(b1-2)Man(a1-6)]Man(b1-4)GlcNAc(b1-4)[Fuc(a1-6)]GlcNAc
# Procedure, shortened: as §1
# [8] = biological target: Fuc(a1-2)Gal(b1-3)GlcNAc(b1-3)Gal(b1-4)Glc
# Procedure, shortened: as §1
# [9] = biological target: Fuc(a1-2)Gal(b1-3)GlcNAc(b1-3)GalNAc
# Procedure, shortened: as §1
# [10] = biological target: Fuc(a1-2)Gal(b1-3)GlcNAc(b1-3)[Fuc(a1-2)Gal(b1-3)GlcNAc(b1-6)]GalNAc
# Procedure, shortened: as §1
# [11] = biological target: Fuc(a1-2)Gal(b1-3)GlcNAc(b1-3)[Gal(b1-4)GlcNAc(b1-6)]Gal(b1-4)Glc
# Procedure, shortened: as §1
# [12] = biological target: Fuc(a1-2)Gal(b1-3)GlcNAc(b1-3)[Neu5Ac(a2-6)Gal(b1-4)GlcNAc(b1-6)]Gal(b1-4)Glc
# Procedure, shortened: as §1
# [13] = biological target: Fuc(a1-2)Gal(b1-3)GlcNAc6S
# Procedure, shortened: as §1
# [14] = biological target: Fuc(a1-2)Gal(b1-3)[Fuc(a1-4)]GlcNAc
# Procedure, shortened: as §1
# [15] = biological target: Fuc(a1-2)Gal(b1-3)[Fuc(a1-4)]GlcNAc(b1-2)Man(a1-3)[Fuc(a1-2)Gal(b1-3)[Fuc(a1-4)]GlcNAc(b1-2)Man(a1-3)]Man(b1-4)GlcNAc(b1-4)GlcNAc
# Procedure, shortened: as §1
# [16] = biological target: Fuc(a1-2)Gal(b1-3)[Fuc(a1-4)]GlcNAc(b1-2)Man(a1-3)[Fuc(a1-2)Gal(b1-3)[Fuc(a1-4)]GlcNAc(b1-2)Man(a1-6)]Man(b1-4)GlcNAc(b1-4)[Fuc(a1-6)]GlcNAc(b1-4)[Fuc(a1-6)]GlcNAc
# Procedure, shortened: as §1
# [17] = biological target: Fuc(a1-2)Gal(b1-3)[Fuc(a1-4)]GlcNAc(b1-3)[Fuc(a1-3)[Gal(b1-4)]GlcNAc(b1-6)]Gal(b1-4)Glc
# Procedure, shortened: as §1
# [18] = biological target: Fuc(a1-2)Gal(b1-3)[Fuc(a1-4)]GlcNAc(b1-3)[Gal(b1-4)GlcNAc(b1-6)]Gal(b1-4)Glc
# Procedure, shortened: as §1
# [19] = biological target: Fuc(a1-2)Gal(b1-4)Fuc(a1-3)]GlcNAc(b1-2)Man(a1-3)[Fuc(a1-2)Gal(b1-4)[Fuc(a1-3)]GlcNAc(b1-2)Man(a1-6)]Man(b1-4)GlcNAc(b1-4)GlcNAc
# Procedure, shortened: as §1
# Fuc(a1-2)Gal(b1-4)Glc = biological target: Fuc(a1-2)Gal(b1-4)Glc
# Procedure, shortened: as §1
# Fuc(a1-2)Gal(b1-4)Glc6S = biological target: Fuc(a1-2)Gal(b1-4)Glc6S
# Procedure, shortened: as §1
# Fuc(a1-2)Gal(b1-4)GlcNAc = biological target: Fuc(a1-2)Gal(b1-4)GlcNAc
# Procedure, shortened: as §1
# [20] = biological target: Fuc(a1-2)Gal(b1-4)GlcNAc(b1-2)Man
# Procedure, shortened: as §1
# [21] = biological target: Fuc(a1-2)Gal(b1-4)GlcNAc(b1-2)Man(a1-3)[Fuc(a1-2)Gal(b1-4)GlcNAc(b1-2)Man(a1-6)]Man(b1-4)GlcNAc(b1-4)GlcNAc
# Procedure, shortened: as §1
# [22] = biological target: Fuc(a1-2)Gal(b1-4)GlcNAc(b1-2)Man(a1-3)[Fuc(a1-2)Gal(b1-4)GlcNAc(b1-2)Man(a1-6)]Man(b1-4)GlcNAc(b1-4)[Fuc(a1-6)]GlcNAc
# Procedure, shortened: as §1
# [23] = biological target: Fuc(a1-2)Gal(b1-4)GlcNAc(b1-2)[Fuc(a1-2)Gal(b1-4)GlcNAc(b1-4)]Man(a1-3)[Fuc(a1-2)Gal(b1-4)GlcNAc(b1-2)Man(a1-6)]Man(b1-4)GlcNAc(b1-4)GlcNAc
# Procedure, shortened: as §1
# [24] = biological target: Fuc(a1-2)Gal(b1-4)GlcNAc(b1-3)Gal(b1-4)GlcNAc
# Procedure, shortened: as §1
# [25] = biological target: Fuc(a1-2)Gal(b1-4)GlcNAc(b1-3)Gal(b1-4)GlcNAc(b1-2)Man(a1-3)[Fuc(a1-2)Gal(b1-4)GlcNAc(b1-3)Gal(b1-4)GlcNAc(b1-2)Man(a1-6)]Man(b1-4)GlcNAc(b1-4)GlcNAc
# Procedure, shortened: as §1
# [26] = biological target: Fuc(a1-2)Gal(b1-4)GlcNAc(b1-3)Gal(b1-4)GlcNAc(b1-3)Gal(b1-4)GlcNAc
# Procedure, shortened: as §1
# [27] = biological target: Fuc(a1-2)Gal(b1-4)GlcNAc(b1-3)GalNAc
# Procedure, shortened: as §1
# [28] = biological target: Fuc(a1-2)Gal(b1-4)GlcNAc(b1-3)[Fuc(a1-2)Gal(b1-4)GlcNAc(b1-6)]GalNAc
# Procedure, shortened: as §1
# [29] = biological target: Fuc(a1-2)Gal(b1-4)GlcNAc(b1-3)[Fuc(a1-3)[Gal(b1-4)]GlcNAc(b1-6)]Gal(b1-4)Glc
# Procedure, shortened: as §1
# [30] = biological target: Fuc(a1-2)Gal(b1-4)GlcNAc(b1-6)GalNAc
# Procedure, shortened: as §1
# [31] = biological target: Fuc(a1-2)Gal(b1-4)GlcNAc6S
# Procedure, shortened: as §1
# [32] = biological target: Fuc(a1-2)Gal(b1-4)[Fuc(a1-3)]GlcNAc
# Procedure, shortened: as §1
# [33] = biological target: Fuc(a1-2)Gal(b1-4)[Fuc(a1-3)]GlcNAc(b1-2)Man(a1-3)[Fuc(a1-2)Gal(b1-4)[Fuc(a1-3)]GlcNAc(b1-2)Man(a1-6)]Man(b1-4)GlcNAc(b1-4)[Fuc(a1-6)]GlcNAc
# Procedure, shortened: as §1
# [34] = biological target: Fuc(a1-2)Gal(b1-4)[Fuc(a1-3)]GlcNAc(b1-2)[Fuc(a1-2)Gal(b1-4)[Fuc(a1-3)]GlcNAc(b1-4)]Man(a1-3)[Fuc(a1-2)Gal(b1-4)[Fuc(a1-3)]GlcNAc(b1-2)Man(a1-6)]Man(b1-4)GlcNAc(b1-4)GlcNAc
# Procedure, shortened: as §1
# [35] = biological target: Fuc(a1-2)Gal(b1-4)[Fuc(a1-3)]GlcNAc(b1-3)Gal(b1-4)[Fuc(a1-3)]GlcNAc
# Procedure, shortened: as §1
# [36] = biological target: Fuc(a1-2)Gal(b1-4)[Fuc(a1-3)]GlcNAc(b1-3)Gal(b1-4)[Fuc(a1-3)]GlcNAc(b1-3)Gal(b1-4)[Fuc(a1-3)]GlcNAc
# Procedure, shortened: as §1
# [37] = biological target: Fuc(a1-2)Gal(b1-4)[Fuc(a1-3)]GlcNAc(b1-3)GalNAc
# Procedure, shortened: as §1
# [38] = biological target: Fuc(a1-2)Gal(b1-4)[Fuc(a1-3)]GlcNAc(b1-3)[Neu5Ac(a2-6)Gal(b1-4)GlcNAc(b1-6)]Gal(b1-4)Glc
# Procedure, shortened: as §1
# [39] = biological target: Fuc(a1-2)Gal3S(b1-4)GlcNAc
# Procedure, shortened: as §1
binder,measurement,setting,value
B1,glycan array binding signal (z-score),Fuc(a1-2)Gal,0.989
same,glycan array binding signal (z-score),Fuc(a1-2)Gal(b1-3)GalNAc,0.068
same,glycan array binding signal (z-score),[1],-0.877
same,glycan array binding signal (z-score),[2],0.031
same,glycan array binding signal (z-score),[3],0.554
same,glycan array binding signal (z-score),[4],3.31
same,glycan array binding signal (z-score),[5],-0.522
same,glycan array binding signal (z-score),Fuc(a1-2)Gal(b1-3)GlcNAc,-0.658
same,glycan array binding signal (z-score),[6],-0.098
same,glycan array binding signal (z-score),[7],3.05
same,glycan array binding signal (z-score),[8],0.276
same,glycan array binding signal (z-score),[9],-0.4
same,glycan array binding signal (z-score),[10],-0.166
same,glycan array binding signal (z-score),[11],0.466
same,glycan array binding signal (z-score),[12],-0.587
same,glycan array binding signal (z-score),[13],-0.691
same,glycan array binding signal (z-score),[14],-0.937
same,glycan array binding signal (z-score),[15],2.59
same,glycan array binding signal (z-score),[16],-0.6
same,glycan array binding signal (z-score),[17],0.269
same,glycan array binding signal (z-score),[18],-0.366
same,glycan array binding signal (z-score),[19],-0.118
same,glycan array binding signal (z-score),Fuc(a1-2)Gal(b1-4)Glc,0.783
same,glycan array binding signal (z-score),Fuc(a1-2)Gal(b1-4)Glc6S,0.633
same,glycan array binding signal (z-score),Fuc(a1-2)Gal(b1-4)GlcNAc,-0.068
same,glycan array binding signal (z-score),[20],0.46
same,glycan array binding signal (z-score),[21],-0.079
same,glycan array binding signal (z-score),[22],0.922
same,glycan array binding signal (z-score),[23],0.538
same,glycan array binding signal (z-score),[24],-0.313
same,glycan array binding signal (z-score),[25],0.837
same,glycan array binding signal (z-score),[26],-0.824
same,glycan array binding signal (z-score),[27],0.788
same,glycan array binding signal (z-score),[28],0.614
same,glycan array binding signal (z-score),[29],-1.01
same,glycan array binding signal (z-score),[30],3.97
same,glycan array binding signal (z-score),[31],-0.09
same,glycan array binding signal (z-score),[32],-0.326
same,glycan array binding signal (z-score),[33],1.86
same,glycan array binding signal (z-score),[34],2.36
same,glycan array binding signal (z-score),[35],-1.12
same,glycan array binding signal (z-score),[36],0.301
same,glycan array binding signal (z-score),[37],0.489
same,glycan array binding signal (z-score),[38],-0.921
same,glycan array binding signal (z-score),[39],-0.361

# Pulled one by one from the list above (2):
binder,measurement,setting,value
B1,glycan array binding signal (z-score),[9],-0.4
same,glycan array binding signal (z-score),[15],2.59

# From the supplement of paper PMC8728848
